Measured values published in PMC5364480.
These are yes or no findings as the source states them, for the method shown.

Key:
…3 (Arabidopsis), O22456 [1] = target: T1, …3 (Arabidopsis), O22456; experiment: two-hybrid; pGADT7 AD and pGBKT7 BD vectors co-transformed into yeast Y187; quantitative β-galactosidase assay with ONPG (Miller units); conditions: remark: other sources report otherwise
T1 chain: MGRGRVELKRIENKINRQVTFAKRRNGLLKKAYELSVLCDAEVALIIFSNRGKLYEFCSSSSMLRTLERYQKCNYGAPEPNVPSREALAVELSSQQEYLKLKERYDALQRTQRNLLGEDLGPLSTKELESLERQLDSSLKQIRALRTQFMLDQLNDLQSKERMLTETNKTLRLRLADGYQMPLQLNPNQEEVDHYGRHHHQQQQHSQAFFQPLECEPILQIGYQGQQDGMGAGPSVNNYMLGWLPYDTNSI

…3 (Arabidopsis), O22456 [2] = target: T1, …3 (Arabidopsis), O22456; experiment: yeast three-hybrid; AD and BD vectors plus a third vector pTFT1 with SEP3 in yeast Y187; β-galactosidase with ONPG; Y2H reads subtracted from Y3H results; conditions: remark: other sources report otherwise

B1: …3, O22456 1-251 (protein)
chain: MGRGRVELKRIENKINRQVTFAKRRNGLLKKAYELSVLCDAEVALIIFSNRGKLYEFCSSSSMLRTLERYQKCNYGAPEPNVPSREALAVELSSQQEYLKLKERYDALQRTQRNLLGEDLGPLSTKELESLERQLDSSLKQIRALRTQFMLDQLNDLQSKERMLTETNKTLRLRLADGYQMPLQLNPNQEEVDHYGRHHHQQQQHSQAFFQPLECEPILQIGYQGQQDGMGAGPSVNNYMLGWLPYDTNSI
- binding (…3 (Arabidopsis), O22456 [1]): no binding
- binding (…3 (Arabidopsis), O22456 [2]): no binding
